The results in this text go back to article PMC12040169 (PLOS Biology, 2025).

The other results are listed elsewhere or left out.

The assay concerns T1, CTL2-GFP (C. trachomatis L2/434/Bu, GFP-expressing).
T1 construct: L2/434/Bu, GFP-expressing
The arrangement: species or system HeLa; Intracellular C. trachomatis growth in HeLa cells, bulk GFP fluorescence relative to DMSO. As to conditions: bulk GFP, single well; 28.5 h, 10 µM; inhibitor.
In the case of `CC(C)c1ccc(/C=N/Nc2nc(-c3ccccc3)cs2)cc1` [CBK263091], the “% of control remaining” value came out at 94.3602%.

For the compound `CCC1CCCCN1C(=O)c1ccccc1C(=O)OC` (stereo not drawn) [CBK083196], the “% of control remaining” value is 99.7186%.

On to `COc1ccc(CNc2cccc(C(=O)O)c2C)cc1OC` [CBK269634], for which the “% of control remaining” value was determined as 87.7714%.

In the case of `CCC(=O)N1CCCCC(NS(=O)(=O)c2ccc(-n3cccn3)cc2)C1` (stereo not drawn) [CBK307398], the “% of control remaining” value is recorded as 107.313%.

On to `CC(NC(=O)COc1ccc(Cl)cc1)C(=O)O` (stereo not drawn) [CBK262112], for which the “% of control remaining” value was 100%.

In the case of `O=C1N=C(NC2C3CC4CC(C3)CC2C4)OC12CCN(CCC(F)(F)F)CC2` (stereo not drawn) [CBK115640], the “% of control remaining” value came out at 108.767%.

Regarding `CC(C)C(CCC(=O)Nc1ccc([N+](=O)[O-])cc1O)C(=O)O` (stereo not drawn) [CBK268464], the “% of control remaining” value is on record as 131.223%.

Regarding `CC(C)OC(=O)Cn1c(C2CCNCC2)cc2cccnc21` [CBK285075], the “% of control remaining” value was determined as 118.725%.

`CCCNC(=O)CN1C(=O)N2CCCN=C2c2ccccc21` [CBK284405]: the “% of control remaining” value is 111.217%.

For the compound `NC(=O)c1ccc(-c2nccnc2NCCc2ccncc2)cc1` [CBK036644], the “% of control remaining” value stood at 80.4475%.

For the compound `O=Cc1c(-[n+]2ccc(-c3ccncc3)cc2)nc([O-])n1-c1ccccc1` [CBK261529], the “% of control remaining” value is listed as 108.009%.

In the case of `c1ccc2oc([C@H]3CCN(C4CCOCC4)C3)nc2c1` [CBK289388], the “% of control remaining” value worked out at 123.949%.

For `O=C(NCCc1ccco1)c1ncoc1-c1ccc(F)cc1` [CBK282247], the “% of control remaining” value is recorded as 141.087%.

As to `CN1CCCCC/C1=N/C(=S)CN1CCCC1=S` [CBK009052], the “% of control remaining” value is on record as 93.9445%.

As for `COc1cc(NC(=O)CCc2ccccc2)nc(OC)n1` [CBK072282], the “% of control remaining” value is reported as 123.72%.

As for `CC1(C)COC(=O)N1C1CCN(C(=O)CCS/C=C\c2ccccc2)CC1` [CBK045134], the “% of control remaining” value turned out to be 133.569%.

Consider `CCc1nc2ccc(C(=O)NC3=NC(=O)CS3)cn2c1N(CC)C(C)=O` [CBK145839], for which the “% of control remaining” value is 169.265%.

Turning to `c1ccc2sc(-n3cncn3)nc2c1` [CBK027022], the “% of control remaining” value was found to be 141.124%.

For the compound `CCN(Cc1ccccc1)C(=O)NCc1cnc(C)cn1` [CBK155218], the “% of control remaining” value turned out to be 104.287%.

`CC(Cn1cc(Cl)cn1)C(=O)NCCN(C)C1CCCCC1` (stereo not drawn) [CBK282041]: the “% of control remaining” value stood at 100.198%.

For `Cc1nnc(SCC(=O)N/N=C/c2ccc(-c3ccc(Br)cc3)o2)n1-c1ccccc1` [CBK262769], the “% of control remaining” value is reported as 116.533%.

Turning to `CCc1nc2c(OCC(=O)N3CCOCC3)cccn2c1N(C)C(=O)c1ccco1` [CBK147436], the “% of control remaining” value worked out at 133.461%.

On to `FC(F)(F)c1ccc(N2CCNCC2)nc1OCc1ccc2c(c1)OCCO2` [CBK003994A], for which the “% of control remaining” value is 74.5912%.

Turning to `Cc1nn(C)cc1CN(Cc1cccc(F)c1)CC1CCCO1` (stereo not drawn) [CBK283013], the “% of control remaining” value turned out to be 104.126%.

Consider `COc1csc(C(=O)Nc2ncn(CC(=O)N3CCCCCC3)n2)c1` [CBK304463], for which the “% of control remaining” value was 122.114%.

For `CCC(=O)NCc1csc(-c2ccccc2)n1` [CBK092344], the “% of control remaining” value turned out to be 111.105%.

For the compound `CC[C@H](Cn1c(=O)oc2ccccc21)NC(=O)c1ccco1` [CBK284541], the “% of control remaining” value was found to be 125.422%.

As for `O=S(=O)(Nc1ccc2cc(Br)cnc2n1)c1cccc2nsnc12` [CBK073894], the “% of control remaining” value is 112.904%.

Take `FC(F)(F)c1ccc(CN2CCN(c3nccnc3OCC3COc4ccccc4O3)CC2)cc1` (stereo not drawn) [CBK082789T]: the “% of control remaining” value turned out to be 94.2059%.

For `Cc1ccc(S(=O)(=O)N2Cc3ccccc3CC2C(=O)Nc2sc3c(c2C#N)CCCC3)cc1` (stereo not drawn) [CBK266313], the “% of control remaining” value is reported as 116.479%.

`CN(C)c1cccc(-c2nc(-c3cccs3)cnc2N)c1` [CBK063979]: the “% of control remaining” value is 129.688%.

For `O=C(NC(=S)N1CCN(c2ccc([N+](=O)[O-])c(N3CCOCC3)c2)CC1)c1cc2ccccc2o1` [CBK268335], the “% of control remaining” value is reported as 111.956%.

`COc1cc(OC)c2c(c1)OC1(CCN(C(=O)c3cnc(C)cn3)CC1)CC2=O` [CBK156503]: the “% of control remaining” value worked out at 113.544%.

With `O=C(Cc1ccccc1)N1CCN(C(=O)c2ccco2)CC1` [CBK068325], the “% of control remaining” value was determined as 123.04%.

In the case of `O=C(O)Cc1sc(Nc2ccccc2)nc1-c1ccccc1` [CBK286775], the “% of control remaining” value is on record as 98.9582%.

Consider `CCN(CC)C(=O)[C@@H]1CCCN1c1nc(O)cc(C(F)(F)F)n1` [CBK002867], for which the “% of control remaining” value amounted to 103.936%.

For the compound `O=C(O)CC1S/C(=N/N=C/c2cn(Cc3ccccc3)c3ccccc23)NC1=O` (stereo not drawn) [CBK264466], the “% of control remaining” value stood at 110.173%.

Take `Cc1nn(CCC#N)c(C)c1CCC(=O)NCc1ccccn1` [CBK305693]: the “% of control remaining” value was found to be 97.5465%.

On to `O=C(COc1ccccc1)N1CCC(Oc2nccnc2OCc2ccc(Cl)c(Cl)c2)CC1` [CBK160718], for which the “% of control remaining” value is given as 70.2513%.

Take `COCCCOc1nc2ccccc2nc1C(F)(F)F` [CBK115803]: the “% of control remaining” value came out at 98.7724%.

In the case of `O=C(c1cc(C(F)(F)F)cc(C(F)(F)F)c1)N1CCC(O)(c2ccc(Cl)cc2)CC1` [CBK061972], the “% of control remaining” value is 103.914%.

For `O=C(O)C(Cc1cc2ccccc2[nH]1)N1C(=O)C2CC=C(Cl)CC2C1=O` (stereo not drawn) [CBK266216], the “% of control remaining” value worked out at 108.086%.

For the compound `Cc1nc2nc(N)nn2c(C)c1CCC(=O)NCc1ccccc1F` [CBK305860], the “% of control remaining” value was determined as 139.967%.

As to `O=C(NC1CC1)c1ccc(-c2cnc3[nH]c(=O)n(CC4CCOCC4)c3n2)cc1` [CBK064890], the “% of control remaining” value amounted to 154.757%.

In the case of `C=CCNC(=O)c1cc(Br)cnc1NCC1CC1` [CBK076424], the “% of control remaining” value turned out to be 179.379%.

`COc1ccccc1N1CCN(C(=O)c2snnc2C)CC1` [CBK057792]: the “% of control remaining” value was 118.122%.

For `Nc1ccc(NC(=O)c2ccc(NC(=O)c3cnc(-c4ccccc4)c(-c4ccncc4)c3)cc2)cc1` [CBK037463], the “% of control remaining” value was determined as 152.604%.

In the case of `O=C(c1cc(S(=O)(=O)N2CCCCC2)c(Cl)cc1N1CCOCC1)N1CCOCC1` [CBK263400], the “% of control remaining” value is given as 73.4557%.

For `O=C(O)CSc1nc2cc(Cl)c(Cl)cc2nc1N1CCCC1` [CBK107863], the “% of control remaining” value came to 117.431%.

Regarding `COc1ccc(NC(=O)c2c(C)[nH]c(=O)[nH]c2=S)cc1OC` [CBK115517], the “% of control remaining” value was 131.729%.

For `CN1CCC(Cc2nc(CC3CCCOC3)n(CC(F)(F)F)n2)CC1` (stereo not drawn) [CBK306801], the “% of control remaining” value was determined as 126.305%.

As to `O=C1N/C(=N\c2ccccn2)SC1Cc1ccc(Br)cc1` (stereo not drawn) [CBK263109], the “% of control remaining” value came out at 100%.

Take `CCn1nc(C)c(C(C)NC(=O)c2c3c(nn2CC)CCCC3)c1C` (stereo not drawn) [CBK282077]: the “% of control remaining” value is on record as 121.722%.

With `CN(C)S(=O)(=O)N1CCN(c2ccnc3cc(Cl)ccc23)CC1` [CBK269785], the “% of control remaining” value amounted to 115.651%.

As to `O=C(O)c1ccc(CNC(=S)NCC2CCCO2)cc1` (stereo not drawn) [CBK266908], the “% of control remaining” value worked out at 132.411%.

Consider `COC(=O)C1(Cc2cc(-c3ccccc3F)no2)CCOCC1` [CBK285182], for which the “% of control remaining” value is on record as 125.666%.

Consider `CCNC(=O)Nc1ccc2c(-c3cccc(C(F)(F)F)c3)ccnc2n1` [CBK070678], for which the “% of control remaining” value was 100%.

As to `COC(=O)COc1ccc2cccc(-n3cnnn3)c2c1` [CBK270173], the “% of control remaining” value is 150.362%.

`COc1ccc(CCNc2ccccc2[N+](=O)[O-])cc1OC` [CBK074819]: the “% of control remaining” value was 93.735%.

Take `Cc1ccc(S(=O)(=O)NCCNc2ccc(Cl)cc2[N+](=O)[O-])cc1` [CBK263784]: the “% of control remaining” value is reported as 106.067%.

With `CS(=O)(=O)Nc1nccnc1OC1CCNCC1` [CBK074265T], the “% of control remaining” value stood at 157.727%.

Take `CC(C)Nc1nc(NC(C)C)nc(N(C)C(N)=O)n1` [CBK027732]: the “% of control remaining” value came out at 137.976%.

On to `CC(C)(C)c1nnc(NCc2ccccc2)s1` [CBK074922], for which the “% of control remaining” value is 81.3194%.

Regarding `COc1ccc(C(=O)N2C[C@@H]3C[C@H](C2)c2ccc(-c4cccnc4)c(=O)n2C3)cc1` [CBK289182], the “% of control remaining” value is on record as 118.552%.

Consider `Cc1ccc(C(C)C)cc1OCC(=O)N/N=C\c1cc([N+](=O)[O-])ccc1O` [CBK261206], for which the “% of control remaining” value is reported as 82.6998%.

In the case of `Cc1cc(C(=O)N2CCCC2c2ccc[nH]2)c2c(C)noc2n1` (stereo not drawn) [CBK305245], the “% of control remaining” value is given as 90.2499%.

On to `CCOC(=O)CN1CCCN(c2nccc(OCC3COc4ccccc4O3)n2)CC1` (stereo not drawn) [CBK083975], for which the “% of control remaining” value is 96.6097%.

With `CC(=O)c1sc2nc(C)cc(C)c2c1N` [CBK131882], the “% of control remaining” value is 175.758%.

Turning to `COC(=O)c1ccsc1NS(=O)(=O)Cc1ccccc1` [CBK039067], the “% of control remaining” value is on record as 156.462%.

Regarding `CC(C)NC(=O)c1cc(C2CN(C(=O)CCc3ccccc3F)CCO2)nc2ccccc12` (stereo not drawn) [CBK285893], the “% of control remaining” value was 98.0806%.

Turning to `O=C(NCc1c(Cl)cccc1Cl)N1CCCC(CO)C1` (stereo not drawn) [CBK156054], the “% of control remaining” value was 89.2787%.

Regarding `CCC1CNCCN1c1nccnc1OCCOc1cccnc1` (stereo not drawn) [CBK001559F], the “% of control remaining” value is given as 127.993%.

Regarding `O=C(Nc1ccc(F)c(F)c1)c1cnc2sccn2c1=O` [CBK287450], the “% of control remaining” value came to 113.01%.

With `COC(=O)c1ccsc1NS(=O)(=O)c1ccc(Oc2ccccc2)cc1` [CBK039064], the “% of control remaining” value amounted to 90.7527%.

As for `COCCN(C(=O)CCC(=O)NCCc1ccccc1)C1CCN(C)CC1` [CBK014576], the “% of control remaining” value is listed as 112.217%.

Consider `O=C(NC(c1ccccc1)c1ccco1)C1CCN(C(=S)NCCc2ccccc2)CC1` (stereo not drawn) [CBK060412], for which the “% of control remaining” value amounted to 162.179%.

For the compound `CCc1nn(CCC(C)O)c(=O)c2cc3sc(C)cc3n12` (stereo not drawn) [CBK282869], the “% of control remaining” value is 123.953%.

As for `Cc1cccc(NC(=O)CN2C(=O)S/C(=C\c3cc(C)n(-c4cc(C)ccn4)c3C)C2=O)c1` [CBK264671], the “% of control remaining” value was found to be 126.954%.

Consider `FC(F)(F)c1nc2ccccc2nc1SCc1ccco1` [CBK107201], for which the “% of control remaining” value is listed as 126.435%.

On to `Cc1nn(C(C)CC(=O)NCc2ccco2)c(C)c1Br` (stereo not drawn) [CBK269797], for which the “% of control remaining” value is recorded as 122.91%.

In the case of `CS(=O)(=O)c1cccc(S(=O)(=O)N2CCN(Cc3ccccc3)CC2)c1` [CBK269747], the “% of control remaining” value is recorded as 146.118%.
